## Screening data, single-dose tests

From ChEMBL document CHEMBL3988442, “University of Dundee, Small-Polar-MMV Screening Library” (2021).

Mtb glucose medium: 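Whole-cell growth test on Mycobacterium tuberculosis, read after 3 days in glucose-containing 7H9 medium; the read-out is not stated. Compounds at 50 µM. Direction is inferred from retests: higher values go with more growth inhibition. About 69,000 compounds were tested under these conditions; 1.1% (about 760) showed 50% or more at least once.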
Mtb cholesterol medium: 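Growth of Mycobacterium tuberculosis over 4 days (cholesterol / DPPC medium with tyloxapol); the read-out is not stated. Tested at 50 µM. Higher reads as more growth inhibition (inferred: compounds with an IC50 in retests scored well above the rest). Size under these conditions: about 69,000 compounds, about 370 of them at 50% or above in at least one test.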

The filed quantity is “Percent Effect” (%).
The record does not define 0% and 100%; most values in the screen are far below 50% and negative numbers occur (in some assays of this library far below -100).
Compounds were drawn at random from those tested, without regard to their results.
Two or more numbers in one place are separate tests of the same structure; such repeats can differ widely.

For COc1ccc(-n2ccc(CNCc3ccc(OC)c(O)c3)n2)cc1 the result was Mtb glucose medium: -25.09% and 6.28%; Mtb cholesterol medium: -9.544%. With CN(Cc1ccc(F)cc1)C(=O)CN1CCOC(Cn2cccn2)C1 (stereo not drawn) the screen gave Mtb glucose medium: -7.135%; Mtb cholesterol medium: 4.342%. For Cc1nc(CN2CCC3(CCCN(Cc4cnn(C)c4)C3)C2=O)cs1.O=C(O)C(F)(F)F.O=C(O)C(F)(F)F (stereo not drawn) the result was Mtb glucose medium: -3.32%; Mtb cholesterol medium: -15.77%. For CCc1ncc(C(=O)N2CCn3c(CC)nnc3C2)s1 the result was Mtb glucose medium: 19.09%; Mtb cholesterol medium: -1.279%. COCC(C)NC(=O)c1cn(C(C)C)cc2c(=O)[nH]nc1-2 (stereo not drawn) gave Mtb glucose medium: -1.322%; Mtb cholesterol medium: -5.997%. For O=S(=O)(c1ccc(F)cc1)N1CCOC[C@H](Oc2cnccn2)C1 the result was Mtb glucose medium: -18.28% and 0.9167%; Mtb cholesterol medium: -1.465%.

For CCc1ncc(CN(C)C(=O)Nc2cccnc2N2CCCC2)s1 the result was Mtb glucose medium: 18.81%; Mtb cholesterol medium: 9.007%. For Cc1nn2c(N3CCS(=O)(=O)CC3)cc(-c3ccccc3)nc2c1C the result was Mtb glucose medium: 3.457%; Mtb cholesterol medium: 1.458% and -1.98%. COC(=O)c1ccc(C(=O)NCc2ccco2)nc1 read Mtb glucose medium: -5.704% and 9.565%; Mtb cholesterol medium: -28.88%. CCc1nnc(Nc2cccc(C3CCN(CC4CC4)CC3)n2)s1 gave Mtb glucose medium: -10.18%; Mtb cholesterol medium: -3.571%. CC(C)c1nc(CNC2CCN(S(C)(=O)=O)CC2)cs1 read Mtb glucose medium: -1.231% and -33.05%; Mtb cholesterol medium: -16.11%. OCC(CO)Nc1cccc(C(F)(F)F)n1 read Mtb glucose medium: 3.544%; Mtb cholesterol medium: -5.428%.

Result for CN(C)CC(=O)N1Cc2nnn(C)c2C(COCC2CC2)C1 (stereo not drawn) was Mtb glucose medium: -7.908%; Mtb cholesterol medium: -15.33%. NC(=O)c1cccc(CCNC(=O)N2Cc3ccccc3C2)c1 read Mtb glucose medium: 28.97% and -0.8754%; Mtb cholesterol medium: -6.063% and -3.513%. CCc1nc2n(n1)CC(NCC(=O)Nc1nccs1)CC2 (stereo not drawn) gave Mtb glucose medium: -20.53%; Mtb cholesterol medium: -0.5417%. For COc1ccc2c(c1)nc1n2[C@@H](CNCc2ccccc2)COC1 the result was Mtb glucose medium: -0.5435% and -4.663%; Mtb cholesterol medium: 0.7298%. COc1cc2nc(C)sc2cc1NC(=O)CN(C)C(C)C gave Mtb glucose medium: 17.06%; Mtb cholesterol medium: -17.13% and 16.07%. COC(=O)CN(Cc1ccccc1C)C(=O)C1CCC1 gave Mtb glucose medium: -42.44%; Mtb cholesterol medium: -9.63%.

CN(Cc1ccccc1F)C(=O)CS(=O)(=O)Cc1ccc(Cl)c(Cl)c1 read Mtb glucose medium: 9.864%; Mtb cholesterol medium: -12.75%. COc1ccc2nc(C)c(C(=O)NCCN3CCS(=O)(=O)CC3)cc2c1 gave Mtb glucose medium: -27.65%; Mtb cholesterol medium: -7.554% and -1.48%. Result for COCC1CN(C(=O)Nc2cc(Cl)cc(Cl)c2)CCO1 (stereo not drawn) was Mtb glucose medium: 23.1%; Mtb cholesterol medium: 1.441%. CCOc1cc(NC(=O)N2CCC3(CCOCC3)C2)ccc1C read Mtb glucose medium: 4.366%; Mtb cholesterol medium: 2.532%. With FC(F)CN1CCOC(Cn2cccn2)C1 (stereo not drawn) the screen gave Mtb glucose medium: 12.97%; Mtb cholesterol medium: 2.798%. For O=C(C1CC1)N1CCN(c2ccc(-n3cncn3)nn2)CC1 the result was Mtb glucose medium: -6.762% and 0.4859%; Mtb cholesterol medium: 13.3%.

For Cc1cc(C)c2[nH]c(C(=O)NCCN3CCCC3=O)c(C)c2c1 the result was Mtb glucose medium: 2.968%; Mtb cholesterol medium: 15.14%. For CS(=O)(=O)N1CCOCC2(CCN(C(=O)c3cccnc3)CC2)C1.O=C(O)C(F)(F)F the result was Mtb glucose medium: 22.71%; Mtb cholesterol medium: -1.214%. OC1(CNCc2ccc(F)c(C(F)(F)F)c2)CCOC1 (stereo not drawn) gave Mtb glucose medium: -2.226% and 10.89%; Mtb cholesterol medium: 7.571%. For Fc1ccc2c(c1)C(NCc1nnc3n1CCCCC3)CCCO2 (stereo not drawn) the result was Mtb glucose medium: 27.75%; Mtb cholesterol medium: 17.06%. Result for CSCCC(=O)N1C[C@H](Nc2ccnc(C)n2)[C@@H](C(C)C)C1 was Mtb glucose medium: 4.506%; Mtb cholesterol medium: 13.77%. CC(O)c1cccc(N2CCC3(CC2)Nc2ccccc2NC3=O)n1 (stereo not drawn) gave Mtb glucose medium: -8.4%; Mtb cholesterol medium: 1.62%.

For Cc1ccc(C(=O)N2CC(=O)N(Cc3cccs3)CC(O)C2)cc1 (stereo not drawn) the result was Mtb glucose medium: 14.53%; Mtb cholesterol medium: -9.74%. O=C(O)c1cc(S(=O)(=O)Nc2cc(Cl)ccc2F)cc2c1OCCO2 gave Mtb glucose medium: 10.04%; Mtb cholesterol medium: -28.54%. For COc1ncccc1C(=O)N1CCCC1c1c(C)n[nH]c1C (stereo not drawn) the result was Mtb glucose medium: 28.41%; Mtb cholesterol medium: -2.077%. For COCCCNc1ncc(-c2cccc(F)c2)c(-c2nccn2C)n1 the result was Mtb glucose medium: -1.399%; Mtb cholesterol medium: 8.57%. With C/C=C(\C)CN1C[C@H](NC(=O)c2cnc(O)cn2)C[C@H]1C(=O)NCC the screen gave Mtb glucose medium: 23.55%; Mtb cholesterol medium: 13.98%. CCC(O)CN1CCN(C(=O)c2ccc3c(c2)COC3)CC1 (stereo not drawn) read Mtb glucose medium: -41.07%; Mtb cholesterol medium: 2.809%.

Result for CC(C)C[C@H](N)COc1cccc(F)c1Oc1ccccc1 was Mtb glucose medium: 23.35%; Mtb cholesterol medium: 15.45%. With COc1ccnc(N2CCN(C(=O)Cc3ccsc3)CC2)n1 the screen gave Mtb glucose medium: 1.366%; Mtb cholesterol medium: -8.877%. Result for COc1ccccc1-c1cccc(C2CCCN(C3CCOCC3)C2)n1 (stereo not drawn) was Mtb glucose medium: 16.33%; Mtb cholesterol medium: -24.04% and -11.73%. With CN(c1ccccc1)S(=O)(=O)c1cc2c(c(C(=O)O)c1)OCCO2 the screen gave Mtb glucose medium: -0.4309% and -21.22%; Mtb cholesterol medium: -4.799%.

3 of the entries, repeated:

compound,Mtb glucose medium,Mtb cholesterol medium
CN(Cc1ccccc1F)C(=O)CS(=O)(=O)Cc1ccc(Cl)c(Cl)c1,9.864,-12.75
OC1(CNCc2ccc(F)c(C(F)(F)F)c2)CCOC1 (stereo not drawn),-2.226 and 10.89,7.571
COc1ccc2c(c1)nc1n2[C@@H](CNCc2ccccc2)COC1,-0.5435 and -4.663,0.7298